The record followed here is publication PMC8570024.

The chains behind the UniProt entries cited, without tags or fusion partners.
UniProt Q93009: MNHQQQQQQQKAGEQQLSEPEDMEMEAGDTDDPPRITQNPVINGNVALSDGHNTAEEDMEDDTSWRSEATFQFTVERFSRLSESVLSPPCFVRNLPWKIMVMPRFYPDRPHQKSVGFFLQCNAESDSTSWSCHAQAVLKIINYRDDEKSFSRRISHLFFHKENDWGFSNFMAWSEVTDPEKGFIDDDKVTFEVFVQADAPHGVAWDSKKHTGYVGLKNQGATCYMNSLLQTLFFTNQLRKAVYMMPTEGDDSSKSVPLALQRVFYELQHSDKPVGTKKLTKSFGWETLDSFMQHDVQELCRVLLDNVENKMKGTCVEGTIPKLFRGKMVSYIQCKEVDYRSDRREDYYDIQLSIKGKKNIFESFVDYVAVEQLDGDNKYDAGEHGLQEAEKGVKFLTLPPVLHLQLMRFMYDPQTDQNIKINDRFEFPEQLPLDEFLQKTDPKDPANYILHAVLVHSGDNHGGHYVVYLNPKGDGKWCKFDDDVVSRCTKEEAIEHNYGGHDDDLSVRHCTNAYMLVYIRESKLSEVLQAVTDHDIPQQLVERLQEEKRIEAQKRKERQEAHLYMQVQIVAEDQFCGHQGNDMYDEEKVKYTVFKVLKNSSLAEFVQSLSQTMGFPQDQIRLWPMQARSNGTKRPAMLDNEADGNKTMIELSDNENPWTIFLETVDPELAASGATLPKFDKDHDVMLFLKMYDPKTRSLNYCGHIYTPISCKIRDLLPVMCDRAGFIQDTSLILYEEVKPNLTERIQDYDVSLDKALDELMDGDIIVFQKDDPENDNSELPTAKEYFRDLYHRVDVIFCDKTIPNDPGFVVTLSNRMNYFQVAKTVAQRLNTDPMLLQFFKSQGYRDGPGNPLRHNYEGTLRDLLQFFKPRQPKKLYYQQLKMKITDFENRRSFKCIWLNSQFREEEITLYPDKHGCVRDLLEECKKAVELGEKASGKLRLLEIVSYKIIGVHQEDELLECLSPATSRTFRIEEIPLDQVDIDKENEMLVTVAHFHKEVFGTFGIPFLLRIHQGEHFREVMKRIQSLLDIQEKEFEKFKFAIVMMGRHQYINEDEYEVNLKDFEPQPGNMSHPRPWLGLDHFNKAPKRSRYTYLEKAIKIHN
UniProt Q16665: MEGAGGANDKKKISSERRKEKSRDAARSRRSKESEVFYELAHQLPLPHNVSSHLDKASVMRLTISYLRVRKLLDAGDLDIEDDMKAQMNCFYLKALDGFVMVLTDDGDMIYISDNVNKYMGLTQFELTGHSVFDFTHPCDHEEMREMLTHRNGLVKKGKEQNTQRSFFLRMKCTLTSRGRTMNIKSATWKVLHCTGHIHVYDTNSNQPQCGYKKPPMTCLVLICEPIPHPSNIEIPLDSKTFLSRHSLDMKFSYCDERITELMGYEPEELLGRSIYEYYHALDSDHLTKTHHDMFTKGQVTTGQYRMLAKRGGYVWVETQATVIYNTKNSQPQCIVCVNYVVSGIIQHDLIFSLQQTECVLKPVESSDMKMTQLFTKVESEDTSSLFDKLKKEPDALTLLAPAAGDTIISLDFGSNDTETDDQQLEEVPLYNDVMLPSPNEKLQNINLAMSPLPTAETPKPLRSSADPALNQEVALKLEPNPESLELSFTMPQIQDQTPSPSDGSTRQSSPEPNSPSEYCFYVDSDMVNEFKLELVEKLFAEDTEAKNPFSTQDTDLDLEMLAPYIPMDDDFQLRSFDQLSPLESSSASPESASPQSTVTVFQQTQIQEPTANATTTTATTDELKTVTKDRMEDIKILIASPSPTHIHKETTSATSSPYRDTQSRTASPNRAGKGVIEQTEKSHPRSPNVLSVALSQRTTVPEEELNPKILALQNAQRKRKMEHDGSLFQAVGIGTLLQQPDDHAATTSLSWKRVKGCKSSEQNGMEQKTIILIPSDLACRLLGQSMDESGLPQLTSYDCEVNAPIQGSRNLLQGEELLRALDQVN

This test addresses HA-USP7 (UniProt Q93009). Put plainly: affinity purification with mass spectrometry; immunoprecipitation from HEK293T cells overexpressing HA-USP7, followed by mass spectrometry.

No constants are given. Whether binding was seen depends on the method and setting. Binding seen in cells or lysates may run through a third protein. These calls come from enrichment with a bait or labelling near it, and not all partners need be listed.

Consider “HIF-1α (endogenous, HEK293T) (from UniProt Q16665 1-826)”, for which the binding entry is given as “binds”.
